The other results are listed elsewhere or left out. These are further read-outs of the screen, such as a control signal, another cell line or another target. No call is given for them. The list favours compounds with an active or inconclusive main result. Potencies come from curve fits of mixed quality, noted in brackets.
Experiment: Cell signaling CRE-BLA (Fsk stim)
Details: CHO CRE-bla reporter (cAMP response element driving beta-lactamase), forskolin EC10, beta-lactamase ratio; measured here: 460 nm blue channel
Summary of the method: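 Forskolin analogue NKH 477 at EC10 stimulated CRE-driven beta-lactamase in CHO cells alongside compound dilution series. Beta-lactamase was measured with CCF4, excitation 405 nm, emission ratio 460/530 nm.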
In the case of Cc1onc(-c2ccccc2Cl)c1C(=O)OCC(=O)c1ccc2c(c1)OCCO2, the AC50 is reported as 20 µM [falling, single point].
With COc1ccccc1NC(=O)N(Cc1ccc2c(c1)OCO2)Cc1nc2ccccc2c(=O)[nH]1 the AC50 was 2.51 µM [rising, partial curve].
In the case of Cc1cc(NC(=O)CSc2nnc3c4c(C)c(C)sc4ncn23)no1, the AC50 is reported as 10 µM [rising, partial curve].
In the case of CCOc1ccc(C(=O)C2CCN(CC(=O)Nc3ccccc3N3CCOCC3)CC2)cc1, the AC50 is reported as 2 µM [rising, single point].
For CCNc1nc(NCC)n2c(SCc3nc4ccccc4c(=O)[nH]3)nnc2n1, the AC50 was 0.2 µM [rising, full curve].
With CCNc1nc(Oc2ccc(C(=O)OCC)cc2)nc(SC)n1 the AC50 was 10 µM [rising, partial curve].
With CSc1nnc(-c2ccco2)c(-c2ccco2)n1 the AC50 was 3.98 µM [falling, full curve].
With COc1cc2c(cc1OC)-c1nncn1C(C)(C)C2 the AC50 was 12.6 µM [rising, single point].
In the case of COc1cccc(Nc2ncc3ncc(=O)n(Cc4ccc(F)cc4)c3n2)c1, the AC50 is reported as 12.6 µM [falling, single point].
With COc1ccc(C(=O)Nc2nncs2)cc1S(=O)(=O)N1CC(c2ccccc2)CC1=O (centres undefined) the AC50 was 5.01 µM [falling, partial curve].
With Cn1cc(-c2nc3cnc(Oc4ccccc4)nc3n(C3CC3)c2=O)c2ccccc21 the AC50 was 5.01 µM [rising, partial curve].
For CC(C)(NCc1ccccc1Cl)C(=O)O, the AC50 was 0.0126 µM [falling, full curve, poor fit].
With O=C(CCCn1c(=O)[nH]c2ccsc2c1=O)N1CCN(Cc2ccc3c(c2)OCO3)CC1 the AC50 was 25.1 µM [rising, single point].
For COc1cccc(C2C(C(=O)OC(C)C)=C(C)Nc3ncnn32)c1 (centres undefined), the AC50 was 6.31 µM [rising, partial curve].
In the case of C[C@@H](CCc1ccc(O)cc1)NCCc1ccc(O)c(O)c1, the AC50 is reported as 25.1 µM [falling, single point].
For CC(=O)SCC(=O)N=c1sc2cc(F)ccc2n1C, the AC50 was 0.02 µM [falling, full curve].
For COc1ccccc1-n1nnnc1S(=O)(=O)Cc1ccc(Cl)cc1, the AC50 was 1.26 µM [falling, full curve].
For Cc1[nH]n2c(=O)c3c(nc2c1-c1ccccc1)CCCC3, the AC50 was 25.1 µM [rising, single point].
With Nc1nc(CSc2nnnn2-c2ccc(F)c(Cl)c2)nc(N2CCOCC2)n1 the AC50 was 12.6 µM [rising, partial curve].

Source: PubChem BioAssay AID662 (National Center for Advancing Translational Sciences (NCATS), 2007)
